This data set is described as follows: environmental impact: ODP, lifetime, GWP. The note with it: for ODP: CFC 11 = 1; for GWP100years: CO2 = 1.

Where only a bound is given, the exact number is not on record here.

As to `FC(F)(Cl)C(F)(Cl)Cl` [CFC 113, 1,1,2-trichloro-1,2,2-trifluoroethane, reference compound], the lifetime came to 110 years, the ODP is given as 1.07 and the GWP100years is listed as 5,000.

On to `FC(F)OC(F)(F)C(F)(F)OC(F)F` [HCF2OCF2CF2OCF2H, 1-difluoromethoxy-1,1,2,2-tetrafluoroethyl difluoromethyl ether], for which the lifetime is <10 years, the ODP was determined as 0 and the GWP100years was 1,725. For the same molecule, for the setting “listed as The hydrofluoropolyether”, the ODP result is on record as “zero”.
